Measured values published in patent US20130090280A1, “CLEANING COMPOSITIONS AND METHODS” (HONEYWELL INTERNATIONAL INC., priority 2011, published 2013).

Experiment: environmental properties of solvents

## dichloropentafluoropropane [HCFC-225]
  ODP (Ozone Depletion Potential): 0.03
